From article PMC6365888

The chains behind the UniProt entries cited, without tags or fusion partners. Where a name states a change or a piece, a line headed by the entry shows the natural chain unless it says otherwise.
UniProt P02545: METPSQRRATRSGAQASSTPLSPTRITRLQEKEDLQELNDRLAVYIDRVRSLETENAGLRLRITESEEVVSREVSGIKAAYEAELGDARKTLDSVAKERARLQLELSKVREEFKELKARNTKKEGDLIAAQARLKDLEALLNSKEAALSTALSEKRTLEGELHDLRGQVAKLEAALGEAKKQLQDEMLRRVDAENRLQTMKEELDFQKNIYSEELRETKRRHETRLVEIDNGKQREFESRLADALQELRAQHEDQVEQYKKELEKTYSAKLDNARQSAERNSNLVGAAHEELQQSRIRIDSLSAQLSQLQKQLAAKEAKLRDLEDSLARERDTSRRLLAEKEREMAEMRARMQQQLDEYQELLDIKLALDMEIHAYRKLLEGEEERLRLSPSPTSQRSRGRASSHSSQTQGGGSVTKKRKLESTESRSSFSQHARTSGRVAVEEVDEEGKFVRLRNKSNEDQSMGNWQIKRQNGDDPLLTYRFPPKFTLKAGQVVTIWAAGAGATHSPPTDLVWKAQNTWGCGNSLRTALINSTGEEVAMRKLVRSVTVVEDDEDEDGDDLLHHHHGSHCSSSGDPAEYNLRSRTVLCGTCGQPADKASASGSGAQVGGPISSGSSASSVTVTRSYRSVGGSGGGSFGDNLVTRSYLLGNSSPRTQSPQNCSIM
UniProt Q92769: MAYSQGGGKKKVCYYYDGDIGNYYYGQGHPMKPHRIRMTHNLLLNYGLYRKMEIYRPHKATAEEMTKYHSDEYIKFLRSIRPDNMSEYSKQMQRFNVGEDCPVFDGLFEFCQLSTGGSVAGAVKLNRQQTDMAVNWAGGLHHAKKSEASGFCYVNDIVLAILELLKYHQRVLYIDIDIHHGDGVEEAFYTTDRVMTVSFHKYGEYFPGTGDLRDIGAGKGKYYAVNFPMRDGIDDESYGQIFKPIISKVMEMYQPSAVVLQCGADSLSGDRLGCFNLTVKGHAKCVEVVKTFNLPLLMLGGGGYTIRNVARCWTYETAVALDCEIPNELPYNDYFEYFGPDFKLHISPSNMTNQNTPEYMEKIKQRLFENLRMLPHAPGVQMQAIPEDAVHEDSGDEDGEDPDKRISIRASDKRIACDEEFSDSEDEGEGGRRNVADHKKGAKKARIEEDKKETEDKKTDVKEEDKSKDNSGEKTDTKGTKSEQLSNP

Molecular target: FLAG-tagged non-farnesylable prelamin A (LA-C661M) (UniProt P02545)
Test: co-IP; transfected HEK293 cells, 700 ug lysate in high detergent IP buffer (50 mM TRIS-HCl pH 8, 250 mM NaCl, 0.1% SDS, 1% NP-40) incubated overnight with anti-FLAG, protein A/G, western blot for endogenous HDAC2

binding: binds weakly
Substance: histone deacetylase 2 (HDAC2) (from UniProt Q92769 1-488) (enzyme)

These are yes or no findings as the source states them, for the method shown. In cells and extracts the contact can be indirect. Binding calls can cover weak binding; strength is not graded here.
